Some of the results follow.
B1: il2ra_site2_3nfp_normal_mot_HHH_b1_02297_000000279_0001_41_58_H_._HHH_b2_07606_af2_0001_0000500038_0000001_0_af2pred_0001_1_af2pred_swapped (protein)
chain: SSSSSSDEEELKEELEELLKEGDEEKLKEVVREASYLAAELGDHELFALAILAFESLLSSSSSSS
B2: il2ra_site2_2erj_sap_28_mot_HHH_b1_03572_af2_000000102_0001_41_56_H_._HHH_b2_05779_af2_0001_0000200012_0000001_0_0001 (protein)
chain: SSSSDDFVEAAEEALRMAIQLARMRGDEEVVERLEELLEELEEHKDPRVAEEAHELAWKVLSSSS
B3: il2ra_site2_2erj_normal_mot_HHH_b2_05804_000000098_0001_44_58_H_._HHH_b2_07531_af2_0001_0000200020_0000001_0 (protein)
chain: SSSSDERWEKIARLAAEALELFEEGNREEAEEVLEEALRLAEENNDEFAKRYLEFARRAASSSSS
B4: il2ra_site1_2b5i_normal_mot_HHH_b2_06044_000000134_0001_1_20_H_._HHH_b1_07499_af2_0001_0000500033_0000001_0_af2pred_dldesign_0_af2pred (protein)
chain: SSSSSSDEVHELFKEALRLKRAGKKEEAKKLLEEAIAKARAAGDTKAVAELEYFLSKLSSSSSSS
B5: il2ra_site2_3nfp_normal_mot_HHH_b1_04960_000000149_0001_23_39_H_._HHH_b1_02627_af2_0001_0000200011_0000001_0 (protein)
chain: SSSSSEVEEEVKRLYEEAERLLEEGNPEEAEEVLLRASAIAYQNNDFELFALLVELMRKIASSSS
B6: il2ra_site2_2erj_normal_mot_HHH_b2_02303_000000050_0001_43_56_H_._HHH_b2_05996_0001_0000100001_0000001_0 (protein)
chain: SSSSSDEIEEEVLELIAEAAHIPDPREAVEVLEHALELAEEYGNELLRRYLELSLKDQRGSSSSS
B7: il2ra_site1_3nfp_normal_mot_6594a5726bb0445e4a0df846cfb9f966_0001_1_000000191_0001_16_30_H_._3ff75f044bbd266f07abdfc5542de534_0001_0001_0001000020_0000001_0 (protein)
chain: SSVVRMVEELRERLNIPPEEAVELVVEEIARLANIPPKEAVRLALRDVRRAGNPEISRILEELEK
B8: il2ra_site1_1z92_sap_9_mot_HHH_b2_03060_af2_000000189_0001_43_58_H_._HHH_b1_06544_af2_0002_0000400024_0000001_1_0001 (protein)
chain: SSSSDTLEEALEMLLKVAERALRAGNPEAARRWIKFAAEQARDLGDEEVLRELEELEELANSSSS
B9: il2ra_site2_3nfp_sap_27_mot_HHH_b1_05547_af2_000000149_0001_21_38_H_._ems_3hC_79_af2_0001_0000200007_0000001_0_0001_1_af2pred_0001_af2pred (protein)
chain: SSSSSEVEEEVRELIERVKEAIKEGDEHKAFALYVEAFQLVAKHDNEELEELLEELAKLLRSSSS
B10: il2ra_site2_2erj_sap_19_mot_35d2dc24e2c4431f89e6f806b163ecf8_0001_af2_000000103_0001_35_49_H_._HHH_b1_02824_0001_0000800030_0000001_0_0001 (protein)
chain: SSSSSSVEEEVRELLEEAERLYEEGDLHEVYRLLSEAMHLASRHNNDELLEEIAKVVERLSSSSS
B11: il2ra_site2_2erj_normal_mot_HHH_b2_05044_af2_000000138_0001_1_15_H_._HHH_b2_07555_0001_0000600021_0000001_0 (protein)
chain: SSSSDTAELLNEAFELARELFKRGDPEEAREVLEEVLRELEELNDPDAVETLEKLLRFLEESSSS
B12: il2ra_site1_3nfp_sap_15_mot_46d73865503fbedcaf0f3a45445d594c_0001_af2_000000151_0001_1_12_H_._HEEHE_2475_0001_0000500042_0000001_0_0001_af2pred_0001_af2pred_1 (protein)
chain: SSSSSRERIRELLERAKELLKNGNPEEAEELLREALELAEERGSPVLRKFLEQALELIELSSSSS
B13: il2ra_site1_2b5i_normal_mot_HHH_b2_04461_000000219_0001_1_19_H_._HHH_b2_07080_0001_0000900018_0000001_0_af2pred_dldesign_0_af2pred (protein)
chain: SSSSSLEDAKEARELFLEANTLSDVAARRALLERALELAEKAKCNLLARLIRWALANLDSSSSSS
B14: il2ra_site1_2b5i_sap_16_mot_3e13e3ed3b6e195f81032bb5ce78c6bf_0001_1_af2_000000143_0001_17_32_H_._HHH_b2_03076_af2_0001_0000800023_0000001_0_0001_af2pred_0001_af … (protein)
chain: SSSSSEAIERIDELWAEASRLWLNGNPEEAEEVLEEALKLAEEENDEVARRDIREFLERGSSSSS
B15: il2ra_site2_2erj_normal_mot_HHH_b2_00732_af2_000000006_0001_23_40_H_._HHH_b2_02708_0001_0000400019_0000001_0 (protein)
chain: SSSSDESLEAIEEFIQKLIEEGNLEEAEAYAELAIRMLRRAGDEEAVEELEELLREIRELGSSSS
B16: il2ra_site1_3nfp_sap_18_mot_ems_3hC_836_0002_000000087_0001_24_40_H_._HHH_b1_03209_0001_0000500012_0000001_0_0001 (protein)
chain: DMEKLVEWIVRSFKENPRAVKRFIEHALEVAGDPEMREEFLRRLEELARELGLDELKEVLEELRK
B17: il2ra_site2_2erj_normal_mot_ems_3hC_1315_af2_000000245_0001_45_63_H_._a2bf7c1b5df5f4a6a28f683756f784c8_0001_1_0001_0000100004_0000001_0_af2pred_0001_1_af2pred_s … (protein)
chain: SEEVVEKLRRAVEEGTLEEVLEELLKEAEEKGDPELWLAVLAAIRLLQLGVPPEEVVEQFERLLR
B18: il2ra_site2_3nfp_sap_18_mot_HHH_b1_03612_af2_000000124_0001_42_57_H_._HHH_b2_00556_0001_0000700040_0000001_0_0001 (protein)
chain: SSSSDHEELVEMALRSVKVLRRQGNPEEARKSVEYALAAAKLLNDEELLEELEQLLEELKSSSSS
B19: il2ra_site1_2b5i_normal_mot_HHH_b2_04910_000000118_0001_1_19_H_._HHH_b1_03302_0001_0000400037_0000001_0_af2pred_dldesign_0_af2pred (protein)
chain: SSSSSPTGKRLREMFLEADRLKQAGKDEEAKEVLERALEEATAAKNNLYLRMIQLALESLSSSSS

molecular target: il2ra, P01589; experiment: yeast display titration

Apparent Kd, inactive:
B1 no binding seen
B2 no binding seen
B3 no binding seen
B4 no binding seen
B5 no binding seen
B6 no binding seen
B7 no binding seen
B8 no binding seen
B9 no binding seen
B10 no binding seen
B11 no binding seen
B12 no binding seen
B13 no binding seen
B14 no binding seen
B15 no binding seen
B16 no binding seen
B17 no binding seen
B18 no binding seen
B19 no binding seen

An excerpt from further up:
Apparent Kd, inactive:
B4 no binding seen
B5 no binding seen

Source: PMC10163288
